Patent US20250320297A1
These are yes or no findings as the source states them, for the method shown. Some binding calls cover weakened binding; strength is not graded here. Where a sequence is shown, tags or fusion partners need not be part of it.

Target: Cyno PDL1-His (recombinant cynomolgus PDL1 with C-terminal poly histidine tag, Acro Biosystems) (cynomolgus) (UniProt G7PSE7)
Assay: BLI (Octet)

B1: 10A4 VHH-Fc (chimeric bivalent antibody) (antibody, human IgG1, V domains shown)
VH: QVKLEESGGGLVMAGGSLRLSCAASGGPFMSYAMGWFRQAPGKEREFVAAIRWNGISTFYADSVKGRFTVSRDNGKNMAFLQMNSLKPEDTAVYYCAAAQTIVTVPENYEYHYWGQGTQVTVSS
  binding: binds
